{"source": "PubChem BioAssay AID1347076", "about": "(National Center for Advancing Translational Sciences (NCATS), 2019)", "note": "About 13,000 (3.2%) of roughly 400,000 compounds were called active. This list was built around the results that the source calls inconclusive (neither active nor inactive); the mix of calls is not that of the screen. Calls follow the shape of the dose curve; as a rule, active = well fitted cell-killing curve with a large enough effect; inconclusive = small, poorly fitted or top-dose-only effect, or effect the other way; inactive = flat fitted curve, though single readings scatter. Potencies beside an inconclusive call are fits to weak or partial responses and may not hold up. % is scaled to controls: 0 for no effect and ±100 for the full control effect; potency is read from the fitted curve at half-maximal effect.", "data": [{"assay": "qHTS assay for MDR1-selective chemotherapeutics: Primary screen using the drug-selected MDR subline cells KB-V1; also: nearly all actives have a fitted effect of over 60% in size", "details": "KB-V1 MDR cells viability, CellTiter-Glo, 72 h; activity change, negative = cytotoxicity: at 46.1 µM (top of the series)", "in_short": "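Drug-selected KB-V1 cells, grown in DMEM lacking phenol red with 10% FBS, receive compound titrations; after three days at 37 degrees C, surviving cell ATP is quantified by CellTiter-Glo luminescence and responses normalized and curve-fitted.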", "values": [{"smiles": "COc1cccc(-n2cc(CN(C)Cc3nc(Cc4cccc(F)c4)no3)cn2)c1", "Potency": "inactive"}, {"smiles": "Cc1ccc(C)c(N/C(N)=N/c2nc(C)cc(C)n2)c1", "Potency": "active: 16.4 µM"}, {"smiles": "O=C(NCc1cccs1)C1CCN(S(=O)(=O)c2ccc(Cl)cc2)CC1", "Potency": "inconclusive: 18.4 µM [cytotoxic, single point]"}, {"smiles": "CCCN1C2CCCC1CC(NC(=O)c1cc(OC)cc(OC)c1)C2", "note": "(configuration not stated)", "Potency": "inactive"}, {"smiles": "COc1ccc(-n2nnnc2CNC(=O)c2ccc3c(c2)OCO3)cc1", "Potency": "inconclusive: 20.6 µM [cytotoxic, partial curve, poor fit]"}, {"smiles": "O=C(N/C(=C/c1ccc(Cl)cc1)c1nc2ccccc2[nH]1)c1ccco1", "Potency": "active: 11.6 µM"}, {"smiles": "Cc1cc(C(=O)CSc2nc3ccccc3n2CCC#N)c(C)n1Cc1cccs1", "Potency": "inconclusive: 6.51 µM [cytotoxic, partial curve]"}, {"smiles": "Cc1cc(C)nc(Nc2nc3ccccc3o2)n1", "activity change, negative = cytotoxicity": "inconclusive: -31.2% [cytotoxic]"}, {"smiles": "Cc1nc2nc3c(cn2n1)C(=O)CC(c1ccccc1)C3", "note": "(configuration not stated)", "Potency": "inconclusive: 29.1 µM [cytotoxic, single point]"}, {"smiles": "Cc1ccc(-c2nnn(C(C)C(=O)N3c4ccccc4CCc4ccccc43)n2)cc1", "note": "(configuration not stated)", "Potency": "inconclusive: 29.1 µM [cytotoxic, single point]"}, {"smiles": "CCN1CCN(C(=O)CN2C(=O)c3cccc4cccc2c34)CC1", "Potency": "inactive"}, {"smiles": "COc1ccc(-c2[nH]ncc2/C=C(/C#N)C(=O)NC2CCCCC2)cc1", "Potency": "inconclusive: 29.1 µM [cytotoxic, single point]"}, {"smiles": "Cc1c(C)n(CCc2ccccc2)c2ncnc(NCCCN(C)C)c12", "Potency": "inactive"}, {"smiles": "CC(C)c1cccc(C2=CC(=O)C[C@H](c3ccc4c(c3)OCO4)C2)c1", "Potency": "inconclusive: 29.1 µM [rising, single point]"}, {"smiles": "CC(C)CNC(=O)COC(=O)c1c2c(nc3ccccc13)CCC2", "Potency": "inconclusive: 5.17 µM [cytotoxic, full curve, poor fit]"}, {"smiles": "CCC(=NCc1ccco1)c1c(C(F)(F)F)[nH]n(-c2nc3ccccc3s2)c1=O", "Potency": "active: 20.6 µM"}, {"smiles": "COc1ccc(C(=O)NC(C)CCc2ccccc2)cc1", "note": "(configuration not stated)", "Potency": "inconclusive: 18.4 µM [cytotoxic, single point]"}, {"smiles": "COc1ccc(/C=N/NC(=O)C2c3ccccc3-c3ccccc32)cc1", "Potency": "inconclusive: 29.1 µM [cytotoxic, single point]"}, {"smiles": "COc1cc(N2CCCC2)c(OC)cc1/C=C1/NC(=S)NC1=O", "Potency": "inconclusive: 29.1 µM [cytotoxic, single point]"}, {"smiles": "O=S(=O)(c1ccc2nc(Cc3cccc(C(F)(F)F)c3)[nH]c2c1)N1CCOCC1", "Potency": "inactive"}, {"smiles": "CSCCC(NS(=O)(=O)c1ccc2c(c1)oc(=O)n2C)C(=O)NC1CCCCC1", "note": "(configuration not stated)", "Potency": "inconclusive: 18.4 µM [cytotoxic, single point]"}, {"smiles": "CCN(CC)c1nc(N)nc(N(c2ccccc2)c2ccccc2)n1", "Potency": "inconclusive: 29.1 µM [cytotoxic, single point]"}, {"smiles": "CN1CCN(c2ccccc2NC(=O)c2ccc(N3CCCCC3)c([N+](=O)[O-])c2)CC1", "Potency": "inactive"}, {"smiles": "O=C1CC2(CCN(C(=O)c3cccc(Br)c3)CC2)Oc2ccccc21", "Potency": "inconclusive: 23.1 µM [cytotoxic, single point]"}, {"smiles": "CC(C)NC(=O)c1ccc(CS(=O)(=O)c2ccc(Br)cc2)o1", "Potency": "inactive"}, {"smiles": "Cc1nn(C)c(C(=O)N2CCOCC2)c1Cl", "Potency": "inactive"}, {"smiles": "N#Cc1c(C(F)(F)F)cc(-c2ccco2)nc1SCc1ccncc1", "Potency": "inconclusive: 16.4 µM [cytotoxic, single point]"}, {"smiles": "O=C(CN1CCC(C(O)(c2ccccc2)c2ccccc2)CC1)Nc1cc(Cl)ccc1Cl", "Potency": "active: 18.4 µM"}, {"smiles": "COc1ccccc1N(C(=O)c1snc(C(N)=O)c1N)C(C(=O)NCc1ccccc1)c1ccc(O)cc1", "note": "(configuration not stated)", "Potency": "inactive"}, {"smiles": "CCCCCn1nc(C)c2c(C)cc(=O)[nH]c21", "Potency": "inconclusive: 25.9 µM [cytotoxic, single point]"}, {"smiles": "Cc1ccc(C)c(N2CCN(C3C(=O)Nc4ccccc4-n4nnnc43)CC2)c1", "note": "(configuration not stated)", "Potency": "active: 11.6 µM"}, {"smiles": "CCOC(=O)[C@H]1[C@H]2COc3ccc(Br)cc3[C@@H]2N2C(=O)CN(Cc3ccc(OC)cc3)C(=O)[C@@]12C", "Potency": "inactive"}, {"smiles": "Cc1cccc(CN2CCN(C3CN(CCc4ccccc4)S(=O)(=O)C3)CC2)c1", "note": "(configuration not stated)", "Potency": "inconclusive: 0.731 µM [cytotoxic, full curve, poor fit]"}, {"smiles": "COc1ccc(CN(C)c2ccc(-c3nc(C)no3)cc2[N+](=O)[O-])cc1", "Potency": "inconclusive: 29.1 µM [cytotoxic, single point]"}, {"smiles": "CN1CCN(CCNC(=O)c2cnn(-c3cccc(Cl)c3)c2C2CCN(C(=O)OC(C)(C)C)CC2)CC1", "Potency": "inactive"}, {"smiles": "Cc1c(C)c2cccnc2c2ncccc12", "Potency": "inconclusive: 29.1 µM [cytotoxic, single point]"}, {"smiles": "CCOC(=O)c1c(NC(=O)C2CCCN(S(=O)(=O)c3ccccc3)C2)sc2c1CCCC2", "note": "(configuration not stated)", "Potency": "inconclusive: 14.6 µM [cytotoxic, partial curve, poor fit]"}, {"smiles": "CCSc1nc(N)nc2c1ncn2C1OC(CO)C(O)C1O", "note": "(configuration not stated)", "Potency": "inactive"}, {"smiles": "O=C(COc1ccc(-n2ccnc2)cc1)Nc1cccc(F)c1", "Potency": "inconclusive: 16.4 µM [cytotoxic, single point]"}, {"smiles": "Clc1ccccc1OCc1nn2c(-c3ccncc3)nnc2s1", "Potency": "inconclusive: 29.1 µM [cytotoxic, single point]"}, {"smiles": "Cc1ccccc1C(=O)c1cccn1CC(=O)NC(C)c1ccc2c(c1)OCCO2", "note": "(configuration not stated)", "Potency": "inconclusive: 8.2 µM [cytotoxic, partial curve, poor fit]"}, {"smiles": "CCOc1ccc(C(=O)N2CCN(c3ccccn3)CC2)cc1OCC", "Potency": "inconclusive: 1.64 µM [cytotoxic, partial curve]"}, {"smiles": "C=CCSc1nnc(-c2cc3c(C(F)(F)F)nn(C)c3s2)n1C", "Potency": "inactive"}, {"smiles": "CCCc1nnc(NC(=S)Nc2ccccc2)s1", "Potency": "inactive"}, {"smiles": "COc1ccc(C(=O)N/N=C/c2ccc(OC)c(CN3CCCc4ccccc43)c2)cc1", "Potency": "inactive"}, {"smiles": "CC1CCCC(CC(=O)O)(CC(=O)O)C1", "note": "(configuration not stated)", "Potency": "inconclusive: 32.6 µM [rising, partial curve, poor fit]"}, {"smiles": "Clc1ccc(-c2csc3ncnc(Sc4nnnn4C4CC4)c23)cc1", "Potency": "inconclusive: 29.1 µM [cytotoxic, single point]"}, {"smiles": "Cc1ccc(C)c(S(=O)(=O)N2CCCOC2CNC(=O)C(=O)NC2CCCCC2)c1", "note": "(configuration not stated)", "Potency": "inconclusive: 7.31 µM [cytotoxic, partial curve]"}, {"smiles": "COc1ccc(NC(=O)c2cc3ccc(O)cc3o/c2=N\\O)cc1", "Potency": "inactive"}, {"smiles": "Cc1cccc(-c2noc(CCC(=O)Nc3ccccc3)n2)c1", "Potency": "inactive"}, {"smiles": "O=C(O)COc1ccc(/C=N/n2c(COc3ccccc3)nc3ccccc3c2=O)cc1", "Potency": "inactive"}, {"smiles": "CCN1CCN(c2cc(C)c3cc(NC(=O)c4cc(Br)ccc4Cl)ccc3n2)CC1", "Potency": "inconclusive: 29.1 µM [cytotoxic, single point]"}, {"smiles": "CCCC12CN3CC(C)(CN(C1)C3c1cn(CC)c3ccccc13)C2=O", "note": "(configuration not stated)", "Potency": "inactive"}, {"smiles": "CC(C)c1ccc([C@@H]2O[C@H](CCc3ccccc3)CC3=C2C(=O)OC(C)(C)O3)cc1", "Potency": "inconclusive: 8.2 µM [cytotoxic, partial curve]"}, {"smiles": "COc1cccc(C(=O)Nc2cccc(-c3nnc(-c4ccccc4)o3)c2)c1", "Potency": "inconclusive: 20.6 µM [cytotoxic, partial curve, poor fit]"}, {"smiles": "O=C1c2ccccc2CCC12N=NCC2c1ccc(Cl)cc1", "note": "(configuration not stated)", "Potency": "inactive"}, {"smiles": "Cc1nc(SCC(=O)N2CCCc3ccccc32)c2oc3ccccc3c2n1", "Potency": "active: 20.6 µM"}, {"smiles": "CC(=O)N1CCCc2cc(S(=O)(=O)N3CCC(C(=O)NCc4ccccc4Cl)CC3)ccc21", "Potency": "inconclusive: 11.6 µM [cytotoxic, partial curve, poor fit]"}, {"smiles": "O=C(CN(c1ccccc1)S(=O)(=O)c1ccccc1)Nc1ccccc1C(=O)NCc1ccco1", "Potency": "inconclusive: 7.31 µM [cytotoxic, partial curve]"}, {"smiles": "CC(=O)c1cc2c(cc1NC(=O)C1CN(C(C)=O)c3ccccc3O1)OCO2", "note": "(configuration not stated)", "Potency": "inconclusive: 3.66 µM [cytotoxic, partial curve]"}, {"smiles": "COc1cc(-c2nc3n(n2)C(c2ccc(F)cc2)C2=C(CCCC2=O)N3)cc(OC)c1OC", "note": "(configuration not stated)", "Potency": "inactive"}, {"smiles": "CC/C(=N\\NC(=S)NC(C)C)c1ccc(OC)c(OC)c1", "Potency": "inconclusive: 25.9 µM [cytotoxic, single point]"}, {"smiles": "CC(=O)Nc1ccc2c(c1)nc(C)n2Cc1ccccc1", "Potency": "inactive"}, {"smiles": "CCOC(=O)C1=C(c2cccc(Oc3ccccc3)c2)NC(=S)NC1C", "note": "(configuration not stated)", "Potency": "active: 16.4 µM"}, {"smiles": "CCCCCCN1C[C@@H](n2cc(-c3ccc(F)cc3)nn2)[C@H](O)C[C@@H]1c1ccc(Cl)cc1", "Potency": "inconclusive: 23.1 µM [cytotoxic, single point]"}, {"smiles": "CCCCN1C2=NCCCN2c2ccccc21", "Potency": "inactive"}, {"smiles": "O=C(O)Cn1nc(-c2ccccc2)ccc1=O", "Potency": "inconclusive: 29.1 µM [cytotoxic, single point]"}, {"smiles": "CCCC(=O)Nc1ccc(C(=O)NNC(=S)NC(=O)c2ccc(Br)o2)cc1", "Potency": "inconclusive: 6.51 µM [cytotoxic, partial curve]"}, {"smiles": "CCCCn1nnnc1C(c1ccccc1)N1CCN(C(C)=O)CC1", "note": "(configuration not stated)", "Potency": "inactive"}, {"smiles": "O=C(CN1CCN(Cc2ccccc2)CC1)Nc1ccccc1-c1ccccc1", "Potency": "inconclusive: 3.66 µM [cytotoxic, partial curve, poor fit]"}, {"smiles": "O=C(NCCCNC(=O)c1cccs1)c1cccs1", "Potency": "inconclusive: 20.6 µM [cytotoxic, single point]"}, {"smiles": "O=C(CCC(=O)Nc1nnc(C2CCCCC2)s1)Nc1ccc(F)cc1", "Potency": "inconclusive: 20.6 µM [rising, single point]"}]}]}
